Test results from doi:10.1101/2024.01.30.578015.
Read-outs that look alike come from different tables or passages of the source. Results are given in words; binding and its absence hold for the method and conditions named. Binding seen in cells or lysates may run through a third protein. Some results given as binding are weak or reduced against the parent protein; the word gives no strength. For some of these results: Sequences can lack the tags named with a protein. One block for each molecule: values may come before it.

The chains behind the UniProt entries cited, without tags or fusion partners. Where a name states a change or a piece, a line headed by the entry shows the natural chain unless it says otherwise.
UniProt Q8IXJ9: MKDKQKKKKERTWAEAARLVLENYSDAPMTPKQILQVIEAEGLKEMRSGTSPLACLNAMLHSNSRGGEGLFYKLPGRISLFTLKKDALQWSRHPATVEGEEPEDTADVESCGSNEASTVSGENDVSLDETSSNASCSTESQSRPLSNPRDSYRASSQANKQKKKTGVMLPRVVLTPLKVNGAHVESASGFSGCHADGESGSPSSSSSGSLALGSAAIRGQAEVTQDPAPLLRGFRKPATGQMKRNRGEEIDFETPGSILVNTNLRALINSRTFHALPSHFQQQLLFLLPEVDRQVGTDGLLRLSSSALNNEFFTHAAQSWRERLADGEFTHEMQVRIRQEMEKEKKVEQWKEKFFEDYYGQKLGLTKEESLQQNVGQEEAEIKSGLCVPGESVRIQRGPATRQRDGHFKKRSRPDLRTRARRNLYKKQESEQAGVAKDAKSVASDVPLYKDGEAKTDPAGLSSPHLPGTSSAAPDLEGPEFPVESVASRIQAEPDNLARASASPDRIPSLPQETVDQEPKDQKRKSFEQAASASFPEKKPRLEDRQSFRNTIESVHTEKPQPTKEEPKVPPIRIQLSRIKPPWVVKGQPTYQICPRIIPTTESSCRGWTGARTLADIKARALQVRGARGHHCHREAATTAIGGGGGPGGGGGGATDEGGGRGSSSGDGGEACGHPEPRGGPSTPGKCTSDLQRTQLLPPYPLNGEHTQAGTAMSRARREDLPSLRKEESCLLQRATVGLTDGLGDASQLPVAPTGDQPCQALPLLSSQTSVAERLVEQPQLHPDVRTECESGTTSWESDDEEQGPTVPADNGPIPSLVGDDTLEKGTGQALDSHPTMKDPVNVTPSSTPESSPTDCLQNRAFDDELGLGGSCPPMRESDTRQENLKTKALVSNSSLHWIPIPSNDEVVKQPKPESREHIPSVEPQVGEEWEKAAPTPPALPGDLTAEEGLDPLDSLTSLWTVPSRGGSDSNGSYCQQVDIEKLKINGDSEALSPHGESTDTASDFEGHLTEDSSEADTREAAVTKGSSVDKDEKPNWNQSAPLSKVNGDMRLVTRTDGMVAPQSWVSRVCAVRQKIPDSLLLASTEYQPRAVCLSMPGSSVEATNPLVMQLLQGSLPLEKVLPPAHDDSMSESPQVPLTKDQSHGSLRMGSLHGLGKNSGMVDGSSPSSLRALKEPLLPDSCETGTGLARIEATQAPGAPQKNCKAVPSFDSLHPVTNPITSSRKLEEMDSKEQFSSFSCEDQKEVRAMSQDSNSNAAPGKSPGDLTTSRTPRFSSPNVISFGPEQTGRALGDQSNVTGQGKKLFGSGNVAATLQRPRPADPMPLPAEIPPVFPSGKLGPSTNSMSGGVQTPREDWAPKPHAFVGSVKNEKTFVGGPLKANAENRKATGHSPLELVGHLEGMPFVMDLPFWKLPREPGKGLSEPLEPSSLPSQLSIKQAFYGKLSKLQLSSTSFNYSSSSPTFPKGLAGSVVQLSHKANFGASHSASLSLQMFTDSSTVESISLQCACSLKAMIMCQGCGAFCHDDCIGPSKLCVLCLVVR
UniProt Q01167: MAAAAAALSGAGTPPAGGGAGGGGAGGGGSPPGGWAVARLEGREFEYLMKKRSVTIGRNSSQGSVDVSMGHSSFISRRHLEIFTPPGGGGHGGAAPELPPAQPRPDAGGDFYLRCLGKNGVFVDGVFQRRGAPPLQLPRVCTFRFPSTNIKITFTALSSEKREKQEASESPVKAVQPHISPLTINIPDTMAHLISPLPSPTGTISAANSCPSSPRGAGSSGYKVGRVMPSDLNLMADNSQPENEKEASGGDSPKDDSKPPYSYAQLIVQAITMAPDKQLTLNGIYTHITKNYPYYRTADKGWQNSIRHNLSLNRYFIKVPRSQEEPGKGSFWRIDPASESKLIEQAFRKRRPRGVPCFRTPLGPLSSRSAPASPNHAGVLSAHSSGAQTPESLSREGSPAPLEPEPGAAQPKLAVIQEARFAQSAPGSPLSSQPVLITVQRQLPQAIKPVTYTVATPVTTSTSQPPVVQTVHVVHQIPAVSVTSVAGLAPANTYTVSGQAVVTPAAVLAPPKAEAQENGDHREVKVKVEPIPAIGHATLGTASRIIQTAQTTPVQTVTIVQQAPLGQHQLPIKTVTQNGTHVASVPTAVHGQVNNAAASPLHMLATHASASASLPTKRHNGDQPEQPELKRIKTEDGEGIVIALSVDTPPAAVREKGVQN
UniProt Q13185: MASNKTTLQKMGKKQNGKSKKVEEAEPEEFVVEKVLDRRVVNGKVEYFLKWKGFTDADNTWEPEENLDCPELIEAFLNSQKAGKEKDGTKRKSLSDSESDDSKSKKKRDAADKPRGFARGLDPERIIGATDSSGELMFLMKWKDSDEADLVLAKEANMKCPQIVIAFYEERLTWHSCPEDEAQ
UniProt Q92560: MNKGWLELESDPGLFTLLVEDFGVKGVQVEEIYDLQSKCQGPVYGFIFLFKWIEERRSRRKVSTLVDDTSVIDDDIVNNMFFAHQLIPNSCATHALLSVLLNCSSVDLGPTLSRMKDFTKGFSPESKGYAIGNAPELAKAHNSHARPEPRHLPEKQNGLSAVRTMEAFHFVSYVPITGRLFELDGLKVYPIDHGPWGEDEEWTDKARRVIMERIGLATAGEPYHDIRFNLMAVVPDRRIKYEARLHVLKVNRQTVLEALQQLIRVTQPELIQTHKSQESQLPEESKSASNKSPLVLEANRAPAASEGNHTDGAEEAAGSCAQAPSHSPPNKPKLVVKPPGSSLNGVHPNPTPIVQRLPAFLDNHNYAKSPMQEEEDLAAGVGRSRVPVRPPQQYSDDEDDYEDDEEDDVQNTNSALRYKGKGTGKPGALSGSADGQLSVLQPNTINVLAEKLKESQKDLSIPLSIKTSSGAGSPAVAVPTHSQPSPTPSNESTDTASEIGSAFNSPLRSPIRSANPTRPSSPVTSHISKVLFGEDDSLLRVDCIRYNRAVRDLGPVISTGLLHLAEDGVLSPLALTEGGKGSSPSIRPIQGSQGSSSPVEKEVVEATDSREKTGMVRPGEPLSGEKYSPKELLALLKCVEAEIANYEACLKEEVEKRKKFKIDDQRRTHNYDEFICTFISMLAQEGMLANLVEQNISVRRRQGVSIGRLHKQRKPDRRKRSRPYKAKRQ

Experiments:
Test in all cases: co-IP
V5-tagged EHMT2 [1] = biological target: V5-tagged EHMT2 (UniProt Q96KQ7)
[2] = biological target: full-length ASXL1-3xFLAG (human) (UniProt Q8IXJ9)
[3] = biological target: mutant ASXL1Y591X-3xFLAG stably expressed in K562 cells (human) (UniProt Q8IXJ9)
[4] = biological target: EHMT2, endogenous in K562 (human (endogenous in K562)) (UniProt Q96KQ7)
V5-tagged EHMT2 [5] = biological target: V5-tagged EHMT2 (UniProt Q96KQ7); remark: listed apart in the source
V5-tagged EHMT2, Q96KQ7 = biological target: T1, V5-tagged EHMT2, Q96KQ7; details: remark: other sources report otherwise
T1 chain: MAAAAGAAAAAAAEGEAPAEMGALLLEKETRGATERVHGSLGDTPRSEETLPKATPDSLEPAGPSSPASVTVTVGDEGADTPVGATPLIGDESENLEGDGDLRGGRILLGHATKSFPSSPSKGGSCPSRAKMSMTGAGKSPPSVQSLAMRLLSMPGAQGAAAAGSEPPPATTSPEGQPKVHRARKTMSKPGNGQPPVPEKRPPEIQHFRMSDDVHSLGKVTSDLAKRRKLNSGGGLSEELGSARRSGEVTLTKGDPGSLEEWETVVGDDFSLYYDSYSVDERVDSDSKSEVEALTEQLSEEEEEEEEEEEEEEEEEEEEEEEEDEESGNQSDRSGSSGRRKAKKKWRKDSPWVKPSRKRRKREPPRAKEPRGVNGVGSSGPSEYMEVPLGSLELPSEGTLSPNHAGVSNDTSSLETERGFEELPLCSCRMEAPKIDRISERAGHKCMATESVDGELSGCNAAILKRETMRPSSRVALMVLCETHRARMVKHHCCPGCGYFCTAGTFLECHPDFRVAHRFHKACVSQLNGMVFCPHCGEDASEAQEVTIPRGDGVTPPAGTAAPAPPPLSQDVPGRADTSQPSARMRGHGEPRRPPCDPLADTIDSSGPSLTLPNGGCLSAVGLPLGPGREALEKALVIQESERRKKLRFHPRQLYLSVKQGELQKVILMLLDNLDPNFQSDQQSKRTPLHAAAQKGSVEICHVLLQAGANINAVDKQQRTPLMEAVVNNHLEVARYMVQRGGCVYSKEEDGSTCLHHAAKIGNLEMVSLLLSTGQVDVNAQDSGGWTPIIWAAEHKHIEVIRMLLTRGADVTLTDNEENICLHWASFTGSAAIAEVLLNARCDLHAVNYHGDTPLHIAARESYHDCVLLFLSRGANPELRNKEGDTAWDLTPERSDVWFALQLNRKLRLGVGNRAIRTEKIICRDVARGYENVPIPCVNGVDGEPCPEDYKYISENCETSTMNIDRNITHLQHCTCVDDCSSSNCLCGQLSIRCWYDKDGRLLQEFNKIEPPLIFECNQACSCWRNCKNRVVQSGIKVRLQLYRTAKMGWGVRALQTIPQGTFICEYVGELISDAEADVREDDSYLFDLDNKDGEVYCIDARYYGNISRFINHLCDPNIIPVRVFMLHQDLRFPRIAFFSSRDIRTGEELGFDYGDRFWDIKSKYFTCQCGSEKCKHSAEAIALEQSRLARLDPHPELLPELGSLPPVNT

- binding (V5-tagged EHMT2 [1]): no binding
- binding [2]: binds
Molecule: FOXK2 (from UniProt Q01167 1-660)

- binding [3]: binds
Molecule: HP1γ, endogenous in K562 (from UniProt Q13185 1-183)

- binding [2]: binds
Molecule: BAP1 (co-transfected) (from UniProt Q92560 1-729) (enzyme)

- binding (V5-tagged EHMT2 [1]): binds
Molecule: endogenous BAP1 (from UniProt Q92560 1-729) (enzyme)

- binding [4]: binds
Molecule: full-length ASXL1-3xFLAG stably expressed in K562 cells (from UniProt Q8IXJ9 1-1541)

- binding [4]: binds
Molecule: mutant ASXL1Y591X-3xFLAG stably expressed in K562 cells (from UniProt Q8IXJ9 1-590)

- binding (V5-tagged EHMT2 [1]): binds
Molecule: full-length ASXL1-3xFLAG (from UniProt Q8IXJ9 1-1541)

- binding (V5-tagged EHMT2 [5]): no binding
B1: OGT (enzyme, UniProt O15294 1-1046)
chain: MASSVGNVADSTEPTKRMLSFQGLAELAHREYQAGDFEAAERHCMQLWRQEPDNTGVLLLLSSIHFQCRRLDRSAHFSTLAIKQNPLLAEAYSNLGNVYKERGQLQEAIEHYRHALRLKPDFIDGYINLAAALVAAGDMEGAVQAYVSALQYNPDLYCVRSDLGNLLKALGRLEEAKACYLKAIETQPNFAVAWSNLGCVFNAQGEIWLAIHHFEKAVTLDPNFLDAYINLGNVLKEARIFDRAVAAYLRALSLSPNHAVVHGNLACVYYEQGLIDLAIDTYRRAIELQPHFPDAYCNLANALKEKGSVAEAEDCYNTALRLCPTHADSLNNLANIKREQGNIEEAVRLYRKALEVFPEFAAAHSNLASVLQQQGKLQEALMHYKEAIRISPTFADAYSNMGNTLKEMQDVQGALQCYTRAIQINPAFADAHSNLASIHKDSGNIPEAIASYRTALKLKPDFPDAYCNLAHCLQIVCDWTDYDERMKKLVSIVADQLEKNRLPSVHPHHSMLYPLSHGFRKAIAERHGNLCLDKINVLHKPPYEHPKDLKLSDGRLRVGYVSSDFGNHPTSHLMQSIPGMHNPDKFEVFCYALSPDDGTNFRVKVMAEANHFIDLSQIPCNGKAADRIHQDGIHILVNMNGYTKGARNELFALRPAPIQAMWLGYPGTSGALFMDYIITDQETSPAEVAEQYSEKLAYMPHTFFIGDHANMFPHLKKKAVIDFKSNGHIYDNRIVLNGIDLKAFLDSLPDVKIVKMKCPDGGDNADSSNTALNMPVIPMNTIAEAVIEMINRGQIQITINGFSISNGLATTQINNKAATGEEVPRTIIVTTRSQYGLPEDAIVYCNFNQLYKIDPSTLQMWANILKRVPNSVLWLLRFPAVGEPNIQQYAQNMGLPQNRIIFSPVAPKEEHVRRGQLADVCLDTPLCNGHTTGMDVLWAGTPMVTMPGETLASRVAASQLTCLGCLELIAKNRQEYEDIAVKLGTDLEYLKKVRGKVWKQRISSPLFNTKQYTMELERLYLQMWEHYAAGNKPDHMIKPVEVTESA

- binding (V5-tagged EHMT2, Q96KQ7): binds
B2: EHMT1 (GLP), Q9H9B1 1-1298 (enzyme)
chain: MAAADAEAVPARGEPQQDCCVKTELLGEETPMAADEGSAEKQAGEAHMAADGETNGSCENSDASSHANAAKHTQDSARVNPQDGTNTLTRIAENGVSERDSEAAKQNHVTADDFVQTSVIGSNGYILNKPALQAQPLRTTSTLASSLPGHAAKTLPGGAGKGRTPSAFPQTPAAPPATLGEGSADTEDRKLPAPGADVKVHRARKTMPKSVVGLHAASKDPREVREARDHKEPKEEINKNISDFGRQQLLPPFPSLHQSLPQNQCYMATTKSQTACLPFVLAAAVSRKKKRRMGTYSLVPKKKTKVLKQRTVIEMFKSITHSTVGSKGEKDLGASSLHVNGESLEMDSDEDDSEELEEDDGHGAEQAAAFPTEDSRTSKESMSEADRAQKMDGESEEEQESVDTGEEEEGGDESDLSSESSIKKKFLKRKGKTDSPWIKPARKRRRRSRKKPSGALGSESYKSSAGSAEQTAPGDSTGYMEVSLDSLDLRVKGILSSQAEGLANGPDVLETDGLQEVPLCSCRMETPKSREITTLANNQCMATESVDHELGRCTNSVVKYELMRPSNKAPLLVLCEDHRGRMVKHQCCPGCGYFCTAGNFMECQPESSISHRFHKDCASRVNNASYCPHCGEESSKAKEVTIAKADTTSTVTPVPGQEKGSALEGRADTTTGSAAGPPLSEDDKLQGAASHVPEGFDPTGPAGLGRPTPGLSQGPGKETLESALIALDSEKPKKLRFHPKQLYFSARQGELQKVLLMLVDGIDPNFKMEHQNKRSPLHAAAEAGHVDICHMLVQAGANIDTCSEDQRTPLMEAAENNHLEAVKYLIKAGALVDPKDAEGSTCLHLAAKKGHYEVVQYLLSNGQMDVNCQDDGGWTPMIWATEYKHVDLVKLLLSKGSDINIRDNEENICLHWAAFSGCVDIAEILLAAKCDLHAVNIHGDSPLHIAARENRYDCVVLFLSRDSDVTLKNKEGETPLQCASLNSQVWSALQMSKALQDSAPDRPSPVERIVSRDIARGYERIPIPCVNAVDSEPCPSNYKYVSQNCVTSPMNIDRNITHLQYCVCIDDCSSSNCMCGQLSMRCWYDKDGRLLPEFNMAEPPLIFECNHACSCWRNCRNRVVQNGLRARLQLYRTRDMGWGVRSLQDIPPGTFVCEYVGELISDSEADVREEDSYLFDLDNKDGEVYCIDARFYGNVSRFINHHCEPNLVPVRVFMAHQDLRFPRIAFFSTRLIEAGEQLGFDYGERFWDIKGKLFSCRCGSPKCRHSSAALAQRQASAAQEAQEDGLPDTSSAAAADPL
